The nature of the assay: qHTS Assay to Find Inhibitors of Chronic Active B-Cell Receptor Signaling. Particulars: ABC-DLBCL IkBa-CBG/CBR reporter, luminescence ratio (green luciferase fused to IkBa over red control in TMD8 lymphoma cells), 4 h. In outline: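 Doxycycline induced both beetle luciferases in TMD8 lymphoma cells; IKK-driven degradation limits the IkappaBalpha-fused green signal, while red luminescence normalises for cell number and nonspecific effects. Compounds tested up to 46 uM, 4 hrs.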
A general note: Quantitative high-throughput screening tests each substance at several concentrations.

[1] abbreviates: measured here: CBR red luminescence, cell number.
Setting [2] is: measured here: IkBa-CBG green luminescence.

Some of the results follow. The main result of the screen is listed elsewhere. These columns were measured beside it and carry no call. Compounds called inactive in the main read-out are mostly missing here. The note in brackets gives the kind of curve behind each potency; many fits are weak.

As to `CC(=C\c1ccco1)/C=C1/SC(=S)N(CC(=O)O)C1=O`, the AC50 under setting [1] was 7.08 µM [rising, partial curve, poor fit].

As for `O=C(Cn1[nH]c(=O)c2ccccc2c1=O)Nc1ccc(-c2nnc3n2CCCCC3)cc1`, the half-maximal activity concentration (AC50) under setting [1] is 29.1 µM [falling, single point].

For the compound `CCOc1cc2[nH]c(=S)n(C3CC3)c(=O)c2cc1OCC`, under setting [1], the concentration at half-maximal activity (AC50) was 0.562 µM [falling, full curve, poor fit].

With `CCN1C(=O)[C@H]2[C@@H](c3ccc(-c4ccc(F)cc4)c(OC)c3)N3CCCC[C@@]3(C(=O)OC)[C@H]2C1=O`, the half-maximal activity concentration (AC50) under setting [1] was 29.1 µM [falling, partial curve, poor fit].

On to `N#Cc1nc(Cc2ccccc2)oc1NCc1ccccc1Cl`, for which the AC50 under setting [1] is 10 µM [falling, partial curve, poor fit].

Regarding `O=C(/C=C/c1ccccc1)Nc1cccc(S(=O)(=O)Nc2ccccc2F)c1`, the AC50 under setting [1] is 9.2 µM [falling, partial curve].

`COc1cc(/C=N/n2nnnc2N)ccc1OCc1c(C)no[n+]1[O-]`: the AC50 under setting [1] is 6.51 µM [rising, single point].

As for `O=C(NCCOCc1ccc(Cl)cc1)c1ncn[nH]1`, the AC50 under setting [1] is 20.6 µM [rising, partial curve, poor fit].

Take `N#CC1(c2ccc(NC(=O)c3ccccc3F)cc2)CCCC1`: the half-maximal activity concentration (AC50) under setting [1] is 20.6 µM [falling, single point].

As for `CC(C)(C)OC(=O)C(C(=O)OC(C)(C)C)c1ccc(Cl)nn1`, the concentration at half-maximal activity (AC50) under setting [1] is 11.2 µM [rising, partial curve, poor fit].

As for `CCCCOc1ccc2c(c1)C(=O)c1cc(O)ccc1-2`, the half-maximal activity concentration (AC50) under setting [1] is 11.2 µM [rising, partial curve].

`CC(Oc1ccccc1)C(=O)Nc1ccccc1O` (stereo not given): the AC50 under setting [1] was 5.17 µM [rising, single point].

With `Cc1ccc(OCC(=O)N2N=C(C(F)(F)F)CC2(O)C(C)(C)C)cc1C` (stereo not given), under setting [1], the AC50 was 11.6 µM [falling, partial curve, poor fit].

For `COc1ccc(/C=N/Nc2ncnc3scc(-c4ccccc4)c23)cc1OC`, the AC50 under setting [1] is 0.058 µM [falling, full curve, poor fit].

In the case of `O=C(NNc1ccc(Cl)cc1)c1sccc1Cl`, the half-maximal activity concentration (AC50) under setting [1] was 15.8 µM [falling, partial curve].

On to `O=C1c2ccccc2C(=O)N1c1n[nH]c(CCc2ccccc2)n1`, for which the concentration at half-maximal activity (AC50) under setting [1] is 22.4 µM [rising, partial curve, poor fit].

For the compound `Nc1c(N2CCCC2)c2ccccc2oc1=O`, the concentration at half-maximal activity (AC50) under setting [1] was 7.08 µM [falling, partial curve, poor fit].

For `CC1(C)CC(C)(c2ccc(O)cc2O)N(c2cccc(Cl)c2)C(=S)N1` (stereo not given), the AC50 under setting [1] is 10.3 µM [falling, partial curve].

As to `CCCCOCC1CC(CC#CCN2CCCCC2)C(=O)O1` (stereo not given), the concentration at half-maximal activity (AC50) under setting [1] was 12.6 µM [rising, partial curve, poor fit].

For the compound `O=C(/C=C/NNC(=O)c1ccccc1O)c1ccccc1`, the concentration at half-maximal activity (AC50) under setting [1] was 11.2 µM [falling, partial curve].

On to `CCn1nc(C)c([N+](=O)[O-])c1C(=O)NNC(=O)c1ccccc1Cl`, for which the AC50 under setting [1] was 15.8 µM [falling, partial curve, poor fit].

Consider `COc1cc(C2c3c(-c4ccccc4)n[nH]c3C(=O)N2c2ccccc2)ccc1O` (stereo not given), for which the AC50 under setting [1] is 11.2 µM [falling, partial curve].

Consider `C/C(=N\NC(=O)c1ccccc1)c1ccc(N2CCOCC2)cc1`, for which the AC50 under setting [1] is 11.6 µM [falling, partial curve].

For the compound `COc1cc(/C=C(/C(=O)O)c2ccc(-c3ccccc3)cc2)cc(OC)c1OC`, the AC50 under setting [1] is 35.5 µM [falling, single point].

Take `COc1ccc2c(c1)CC/C(=C\C=C\c1ccccc1OC)C2=O`: the concentration at half-maximal activity (AC50) under setting [1] was 11.6 µM [falling, partial curve].

With `C=CCn1c(-c2sc(-c3ccccc3)nc2C)n[nH]c1=S`, the AC50 reads like this: under setting [1], 22.4 µM [rising, single point]; under setting [2], 35.5 µM [falling, single point].

With `CCCn1c(=O)c2[nH]c(-c3ccc(OCC(=O)Nc4ccc(C#N)cc4)cc3)nc2n(CCC)c1=O`, the half-maximal activity concentration (AC50) under setting [1] is 5.8 µM [falling, single point].

With `O=C(Nc1ccc(C(=O)O)cc1)Nc1cccc([N+](=O)[O-])c1`, under setting [1], the AC50 is 23.1 µM [falling, single point].

Consider `CC1CCCN(S(=O)(=O)c2cc(C(=O)NCc3ccco3)ccc2Cl)C1` (stereo not given), for which the concentration at half-maximal activity (AC50) under setting [1] was 18.4 µM [falling, single point].

Take `CCOC(=O)Cn1nc(/C=C/c2ccc(C(C)C)cc2)ccc1=O`: the AC50 under setting [1] is 8.91 µM [rising, partial curve, poor fit].

With `COC(=O)c1ccccc1Sc1c(/C=N/OCc2ccc(Cl)cc2)c(C(F)(F)F)nn1C`, the concentration at half-maximal activity (AC50) under setting [1] was 29.1 µM [falling, single point].

For the compound `O=C(Oc1cccc(NC(=O)c2ccco2)c1)c1cccc(S(=O)(=O)N2CCCC2)c1`, under setting [1], the half-maximal activity concentration (AC50) was 20.6 µM [falling, partial curve].

In the case of `COc1ccc(CC2=C(O)c3ccccc3C(=O)C2=O)cc1`, the AC50 under setting [1] was 35.5 µM [falling, partial curve, poor fit].

Take `O=C(CCCc1nc(-c2ccccc2Cl)no1)NC1CCCC1`: under setting [1], the concentration at half-maximal activity (AC50) is 22.4 µM [falling, single point].

In the case of `CCOc1ccc(N2C(=O)CC(Sc3nc(CC(C)C)ccc3C#N)C2=O)cc1` (stereo not given), the AC50 under setting [1] is 35.5 µM [rising, single point].

In the case of `COc1cc(C=O)ccc1OCc1c(C)noc1C`, the AC50 under setting [1] is 0.82 µM [rising, full curve, poor fit].

In the case of `O=C(c1ccccc1SCc1ccccc1)N1CCCCCC1`, the half-maximal activity concentration (AC50) under setting [1] is 0.1 µM [rising, full curve, poor fit].

For the compound `Cc1ccc(-n2c(C)cc(/C=N/NC(=O)c3ccc(CN4CCOCC4)cc3)c2C)cc1`, the AC50 under setting [1] was 1.12 µM [falling, full curve, poor fit].

Take `C#CCOCCOCCOCCNc1nc(N2CCN(C(=O)CCCCCCCCCCNC(=O)[C@H]([C@@H](C)CC)n3cc(CCCCN=C(N)N)nn3)CC2)nc(N2CCN(C(=O)CCCCCCCCCCNC(=O)[C@H](CCCCN)n3cc(C[C@@H](C)CC)nn3)CC2)n1`: the concentration at half-maximal activity (AC50) under setting [1] is 20.6 µM [rising, single point].

Turning to `O=C(NC1=NCCS1)Nc1ccccc1`, the AC50 under setting [1] is 35.5 µM [falling, single point].

For `CCOc1ccc(N2C(=O)CC(N)C2=O)cc1` (stereo not given), the AC50 was 23.1 µM [falling, partial curve] under setting [1] and 18.4 µM [rising, partial curve, poor fit] under setting [2].

For the compound `CCOC(=O)C1(CCc2ccccc2)CCN(Cc2ccc(O)cc2)CC1`, the AC50 under setting [1] is 10 µM [falling, partial curve, poor fit].

Take `O=C(Nc1cccc(-c2cn3c(n2)SCC3)c1)c1ccc2ccccc2n1`: the half-maximal activity concentration (AC50) under setting [1] is 10 µM [falling, partial curve, poor fit].

Consider `CCOC(=O)/C=c1\s/c(=C\c2c(OC)ccc3ccccc23)c(=O)n1CC(=O)NCC1CCCO1` (stereo not given), for which the half-maximal activity concentration (AC50) reads like this: under setting [1], 16.4 µM [rising, single point]; under setting [2], 18.4 µM [falling, single point].

As for `CC1CCCC(NC(=O)COC(=O)/C=C/c2ccco2)C1C` (stereo not given), under setting [1], the concentration at half-maximal activity (AC50) is 0.103 µM [falling, full curve, poor fit].

With `CCOC(=O)N/N=C/c1cn(Cc2ccc(Cl)cc2)c2ccccc12`, the AC50 under setting [1] is 29.1 µM [rising, single point].

For the compound `COc1ccc(CC(NC(C)=O)C(=O)NC2CCN(C(=O)Nc3ccc(Cl)cc3)CC2)cc1OC` (stereo not given), under setting [1], the AC50 is 2.51 µM [rising, full curve].

As to `COc1cc(C(=O)Nc2cc(-c3nc4cc(C)ccc4o3)ccc2C)cc(OC)c1OC`, the AC50 under setting [1] was 0.562 µM [rising, full curve].

`O=[N+]([O-])c1ccc(SCCO)nc1SCCO`: under setting [1], the half-maximal activity concentration (AC50) is 15.8 µM [falling, partial curve, poor fit].

Regarding `Cn1c(/C(C#N)=C/c2ccc(O)cc2)nc2ccccc21`, the half-maximal activity concentration (AC50) under setting [1] was 11.2 µM [falling, partial curve].

Consider `COc1ccc(/C=N/N2CCN(c3ccc(Cl)cc3)CC2)cc1O`, for which the concentration at half-maximal activity (AC50) under setting [1] is 28.2 µM [falling, partial curve, poor fit].

Consider `CCN1CCN(S(=O)(=O)CC2(C)C3CCC2(C)C(=O)C3Br)CC1` (stereo not given), for which the AC50 under setting [1] was 3.16 µM [rising, single point].

On to `COc1cccc(Nc2nc3ccc(C(=O)c4ccccc4)cc3n3cnnc23)c1`, for which the concentration at half-maximal activity (AC50) under setting [1] was 0.112 µM [rising, full curve, poor fit].

With `CCC(C(=O)c1ccc2ncccc2c1)c1ccccc1` (stereo not given), the half-maximal activity concentration (AC50) under setting [1] was 5.8 µM [rising, partial curve].

For the compound `CN(C)S(=O)(=O)c1cccc(NC(=O)c2cc3ccccc3o2)c1`, the AC50 under setting [1] was 23.1 µM [falling, partial curve].

For `CNC(=O)c1nnsc1S(=O)(=O)c1ccc(Cl)cc1`, the AC50 under setting [1] was 2.82 µM [falling, full curve].

As for `COc1cccc(C(=O)Nc2ccc3c(c2)C(=O)c2ccccc2C3=O)c1`, the concentration at half-maximal activity (AC50) under setting [1] was 2.59 µM [rising, partial curve, poor fit].

With `O=C(COC(=O)c1ccc(F)c(S(=O)(=O)N2CCOCC2)c1)c1ccc(Br)cc1`, the AC50 under setting [1] was 3.66 µM [falling, partial curve, poor fit].

Take `CCOC(=O)C1CCN(Cc2cnc(Oc3ccc(Cl)cc3C)s2)CC1`: the AC50 under setting [1] was 12.6 µM [falling, partial curve].

As for `O=C(N/N=C/c1ccc(OCC(=O)N2CCCCC2)cc1)c1ccccc1O`, under setting [1], the concentration at half-maximal activity (AC50) is 13 µM [falling, partial curve, poor fit].

On to `CCC(=O)Nc1ccc(NC(=O)c2cccc(OC)c2)nc1`, for which, under setting [1], the AC50 is 8.2 µM [falling, partial curve].

Take `COc1ccccc1/C=C/C=N/NC(=O)c1ccco1`: the AC50 under setting [1] was 1.58 µM [falling, full curve].

In general, AC50 refers to the concentration at which the activity in the assay is half-maximal.

The values are drawn from PubChem BioAssay AID493014 (National Center for Advancing Translational Sciences (NCATS), 2011).
